# From PubChem BioAssay AID504834 (National Center for Advancing Translational Sciences (NCATS), 2011)
# In all, about 320,000 compounds went through this assay and about 22,000 (6.9%) were called active. The shares of active, inactive and inconclusive entries below differ from those in the screen. Calls come from the whole dose curve; as a rule, active = well fitted inhibition curve with a large enough effect; inconclusive = small, poorly fitted or top-dose-only effect, or another doubt; inactive = no such curve, though single readings can be large or run the other way. Potencies of inconclusive entries are doubtful fits and often do not repeat.
# Experiment: Primary qHTS for delayed death inhibitors of the malarial parasite plastid, 96 hour incubation
# Details: P. falciparum luciferase reporter growth; series mostly up to 28.7 µM
# Summary of the method: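 Plates of compound plus infected erythrocytes (2% hematocrit, 0.05% parasitemia final) incubate 96 hours, 37 C, 5% CO2. Detection reagent added; reduced luminescence from the parasites' luciferase reporter flags inhibition.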
# % is set by controls: 0 for no effect and ±100 for the full control effect; potency is the fitted concentration of half-maximal effect.
Compound,Potency,"activity change, negative = inhibition"
CC1=C(C)CC2C(=O)N(Cc3ccccc3)C(=O)C2C1 (configuration not stated),"inconclusive: 18.5 µM [inhibitor, single point]",
COc1ccc(CNCCC2(C(C)C)CCOC(C)(C)C2)cc1 (configuration not stated),"inconclusive: 10.4 µM [inhibitor, single point]",
CNc1nc(-c2ccc(Cl)cc2)cs1,inactive,
COc1ccccc1NC(=O)C(C)OC(=O)CCCOc1ccccc1 (configuration not stated),inactive,
COCC(C)n1c(SCC(=O)NCCC2=CCCCC2)nc2ccccc2c1=O (configuration not stated),active: 8.28 µM,
COc1ccc(C2=C(CN(C)C)C(c3ccccc3)c3ccccc3O2)cc1 (configuration not stated),active: 2.62 µM,
COc1ccc(/C=N/Nc2ncc(-c3ccccc3)cn2)c(OC)c1,"inconclusive: 9.28 µM [inhibitor, single point]",
Cc1cc(NC(=O)CCC(=O)N(CC(=O)NCC2CCCO2)c2cccc(F)c2)no1 (configuration not stated),inactive,
COc1ccc(S(=O)(=O)N2CCCCCC2)cc1C(=O)N1CCN(c2ccccc2O)CC1,active: 4.65 µM,
CC(C)[C@H](NC(=O)c1cccc(S(=O)(=O)N2CCOCC2)c1)C(=O)Nc1nc2ccccc2s1,active: 10.4 µM,
COCCNC(=O)c1csc2c1CCCC2,"inconclusive: 10.4 µM [inhibitor, partial curve, poor fit]",
COC(=O)c1cc(NC(=O)c2cc3ccccc3o2)cc(C(=O)OC)c1,inactive,
ClC1(Cl)CC1CSc1nc2ccccc2[nH]1 (configuration not stated),"inconclusive: 5.22 µM [inhibitor, partial curve]",
Cn1nc(C(=O)NNC(=O)CCOc2ccc(C(C)(C)C)cc2)c2ccccc2c1=O,"inconclusive: 8.28 µM [inhibitor, partial curve, poor fit]",
O=C(OCCCC(=O)N1CCOCC1)c1ccccc1,inactive,
COC(=O)[C@@H]1CCCN1Cc1nc(Cc2ccc(OC)c(OC)c2)no1,"inconclusive: 0.0037 µM [inhibitor, full curve, poor fit]",
Cc1ccc(NC(=O)Nc2cnc3ccccc3c2)cc1,inactive,
CCN(CC)C(=O)Cn1cc(SCC(=O)NCc2ccco2)c2ccccc21,"inconclusive: 11.7 µM [inhibitor, single point]",
N=C1S/C(=C\c2ccc(-c3ccccc3C(=O)O)o2)C(=O)N1c1ccc2c(c1)OCO2,"inconclusive: 9.28 µM [inhibitor, partial curve, poor fit]",
CCOC(=O)c1nn(-c2ccc(OCC)cc2)c2nc(-c3cccc(OC)c3)c(C#N)c(=O)n12,"inconclusive: 11.7 µM [inhibitor, single point]",
O=C(NCc1ccc2c(c1)OCO2)C1CCCN1C(=O)Nc1ccc(F)cc1 (configuration not stated),"inconclusive: 14.7 µM [inhibitor, single point]",
CCOC(=O)c1c(N2C(=O)CC(Sc3ccccc3C(=O)O)C2=O)sc2c1CCCC2 (configuration not stated),inactive,
COc1ccc(NC(=O)CN2CCN(S(=O)(=O)c3ccc(Cl)cc3)CC2)cc1Cl,"inconclusive: 11.7 µM [inhibitor, partial curve, poor fit]",

# Among those listed so far, these contain a carbonyl joined to an NH by a bond outside any ring.
Compound,Potency,"activity change, negative = inhibition"
COc1ccccc1NC(=O)C(C)OC(=O)CCCOc1ccccc1 (configuration not stated),inactive,
COCC(C)n1c(SCC(=O)NCCC2=CCCCC2)nc2ccccc2c1=O (configuration not stated),active: 8.28 µM,
Cc1cc(NC(=O)CCC(=O)N(CC(=O)NCC2CCCO2)c2cccc(F)c2)no1 (configuration not stated),inactive,
CC(C)[C@H](NC(=O)c1cccc(S(=O)(=O)N2CCOCC2)c1)C(=O)Nc1nc2ccccc2s1,active: 10.4 µM,
COCCNC(=O)c1csc2c1CCCC2,"inconclusive: 10.4 µM [inhibitor, partial curve, poor fit]",
COC(=O)c1cc(NC(=O)c2cc3ccccc3o2)cc(C(=O)OC)c1,inactive,
Cn1nc(C(=O)NNC(=O)CCOc2ccc(C(C)(C)C)cc2)c2ccccc2c1=O,"inconclusive: 8.28 µM [inhibitor, partial curve, poor fit]",
Cc1ccc(NC(=O)Nc2cnc3ccccc3c2)cc1,inactive,
CCN(CC)C(=O)Cn1cc(SCC(=O)NCc2ccco2)c2ccccc21,"inconclusive: 11.7 µM [inhibitor, single point]",
O=C(NCc1ccc2c(c1)OCO2)C1CCCN1C(=O)Nc1ccc(F)cc1 (configuration not stated),"inconclusive: 14.7 µM [inhibitor, single point]",
COc1ccc(NC(=O)CN2CCN(S(=O)(=O)c3ccc(Cl)cc3)CC2)cc1Cl,"inconclusive: 11.7 µM [inhibitor, partial curve, poor fit]",

# The list goes on.

Compound,Potency,"activity change, negative = inhibition"
CCn1c(SCC(N)=O)nc2sc3c(c2c1=O)CCN(C)C3,"inconclusive: 1.65 µM [inhibitor, full curve]",
Cc1c(NC(=O)c2ccc(-c3cccc([N+](=O)[O-])c3)o2)c(=O)n(-c2ccccc2)n1C,"inconclusive: 16.5 µM [inhibitor, single point]",
COc1ccccc1NC(=O)Nc1nc(CC(=O)Nc2ccccc2F)cs1,inactive,
COc1ccc(C(=O)NCCC(=O)NCc2cc(=O)n(C)c(=O)n2C)cc1,"inconclusive: 20.8 µM [inhibitor, single point]",
COc1ccc(OC)c(NC(=O)CNC(=O)c2ccc([N+](=O)[O-])cc2)c1,"inconclusive: 1.85 µM [inhibitor, full curve, poor fit]",
COc1cccc(-c2sc3ccc(OC)cc3c2-c2ccc(C(N)=O)cc2)c1,"inconclusive: 16.5 µM [inhibitor, single point]",
COc1cccc(N2CCN(C(=O)c3ccc(CS(=O)c4ccc(Cl)cc4)o3)CC2)c1 (configuration not stated),active: 13.1 µM,
O=C1C2N=NN(CC(=O)N3N=C(c4ccccc4)CC3c3ccc([N+](=O)[O-])cc3)C2C(=O)N1c1ccccc1 (configuration not stated),"inconclusive: 13.1 µM [inhibitor, single point]",
Cc1c(Cc2ccccc2)c(=O)n2c([nH]c3ccccc32)c1C#N,"inconclusive: 0.0026 µM [inhibitor, full curve, poor fit]",
CCOC(=O)N1CCC(n2c(=S)[nH]c3cc(OC)c(OC)cc3c2=O)CC1,"inconclusive: 6.57 µM [inhibitor, partial curve]",
CC[C@H]1c2[nH]c3ccccc3c2C[C@H]2C(=O)N(c3ccc(F)cc3)C(=O)N21,"inconclusive: 18.5 µM [inhibitor, single point]",
Cc1ccc(NC(=O)CCNS(=O)(=O)c2ccc3c(c2)CCC(=O)N3)cc1,"inconclusive: 0.0029 µM [inhibitor, full curve, poor fit]",
Cn1c(NC(=O)c2ccccc2NC(=O)C(C)(C)C)nc2ccccc21,"inconclusive: 10.4 µM [inhibitor, single point]",
CCCNC(=O)CSc1nc(Cc2ccccc2)nc2ccccc12,"inconclusive: 18.5 µM [inhibitor, single point]",
CCCCn1c(SCC(=O)Nc2ccc(OC)cc2)nc2ccc(N3CCOCC3)cc2c1=O,"inconclusive: 2.33 µM [inhibitor, full curve]",
CC(=O)Nc1ccc(NC(=O)C(=O)NCC(c2ccco2)N2CCc3ccccc3C2)cc1 (configuration not stated),"inconclusive: 6.57 µM [inhibitor, partial curve, poor fit]",
COc1ccccc1C(=O)Nc1c(C)n(C)n(-c2ccccc2)c1=O,inactive,
O=C(Cn1cnc([N+](=O)[O-])n1)N/N=C/c1ccccc1O,"inconclusive: 8.28 µM [inhibitor, partial curve]",
CCOC(=O)Nc1sc(C(=O)N(CC)CC)c(C)c1C(=O)OCC,"inconclusive: 18.5 µM [inhibitor, single point]",
NS(=O)(=O)c1ccc(NC(=O)COC(=O)COc2ccc3ccccc3c2)cc1,,inactive: 7.94% [at 5.75 µM]
COc1cccc(C(=O)Nc2sc(C(C)C)cc2C(N)=O)c1OC,active: 13.1 µM,
COc1cccc(NC(=O)c2cccc(N3C(=O)C4C5C=CC(C5)C4C3=O)c2)c1 (configuration not stated),"inconclusive: 2.08 µM [inhibitor, partial curve, poor fit]",
O=S(=O)(c1ccc2c(c1)oc1ccccc12)N1CCOCC1,inactive,

# Of the compounds above, these have a cyano group.
Compound,Potency,"activity change, negative = inhibition"
CCOC(=O)c1nn(-c2ccc(OCC)cc2)c2nc(-c3cccc(OC)c3)c(C#N)c(=O)n12,"inconclusive: 11.7 µM [inhibitor, single point]",
Cc1c(Cc2ccccc2)c(=O)n2c([nH]c3ccccc32)c1C#N,"inconclusive: 0.0026 µM [inhibitor, full curve, poor fit]",

# Further records follow:

Compound,Potency,"activity change, negative = inhibition"
CCCSc1nnc2nc(C)cc(C)n12,"inconclusive: 8.28 µM [inhibitor, partial curve]",
COc1ccc(C)cc1S(=O)(=O)Nc1cccc(-c2ccc(N3CCCCCC3)nn2)c1,"inconclusive: 2.08 µM [inhibitor, single point]",
COc1ccc(NC(=O)CN(C)C(=O)/C=C/c2cn(-c3ccccc3)nc2-c2ccc(C)cc2)cc1,active: 13.1 µM,
COC(=O)CCCNC(=O)c1ccc2nc(Cc3ccc(OC)cc3)oc2c1,inactive,
CC(NC(=O)Cn1cc(C(=O)C2CC2)c2ccccc21)c1ccccc1 (configuration not stated),"inconclusive: 1.85 µM [inhibitor, full curve]",
Cc1cccnc1NC(=S)Nc1ccc(F)cc1F,"inconclusive: 5.86 µM [inhibitor, partial curve]",
Nc1ccc(S(=O)(=O)N2CCc3ccccc32)cc1,"inconclusive: 14.7 µM [inhibitor, single point]",
COc1ccccc1N(C)S(=O)(=O)c1ccc(C(=O)NCCc2ccc(F)cc2)cc1,"inconclusive: 10.4 µM [inhibitor, single point]",
Cc1cccc(-c2nc3c(c(SCC(=O)N4CCOCC4)n2)COC(C)(C)C3)c1,active: 11.7 µM,
Cc1cc2c(ncn2Cc2ccccc2)c(NS(C)(=O)=O)c1C,"inconclusive: 9.28 µM [inhibitor, single point]",
CC1=C(CC(=O)O)c2cc(F)ccc2C1=Cc1ccc(S(C)(=O)=O)cc1,inactive,
O=C(COc1ccccc1)NNC(=O)c1cc2ccccc2o1,"inconclusive: 0.522 µM [inhibitor, full curve, poor fit]",
Cc1ccc(S(=O)(=O)N2CCN(C(=O)CSCc3ccc(C(C)C)cc3)CC2)cc1,"inconclusive: 18.5 µM [inhibitor, single point]",
COc1ccc(NC(=O)COC(=O)C2CCC(C(C)(C)C)CC2)c([N+](=O)[O-])c1 (configuration not stated),"inconclusive: 16.5 µM [inhibitor, single point]",
Cc1ccc(CN2CCSc3ccc(C(=O)NCC4CCCO4)cc32)cc1 (configuration not stated),"inconclusive: 18.5 µM [inhibitor, single point]",
O=C(Cn1nc(-c2ccc(Cl)cc2)ccc1=O)N1CCN(c2ccccc2)CC1,"inconclusive: 9.28 µM [inhibitor, single point]",
CCn1c(=O)cc(OCC(=O)N2CCN(c3ccc(F)cc3)CC2)c2ccccc21,"inconclusive: 18.5 µM [inhibitor, single point]",
Cc1ccccc1Cn1c(-c2ccc(=O)[nH]c2)nc2ccccc21,active: 7.38 µM,
Cc1cc2c(cc(C(=O)OCC(=O)NCc3ccco3)n2C)s1,inactive,
CC(=O)Oc1ccc(N(C(C)=O)S(=O)(=O)c2ccc(C)c([N+](=O)[O-])c2)cc1,active: 2.62 µM,
O=C(CSc1ccc2c(c1)OCCO2)Nc1cccnc1,"inconclusive: 4.15 µM [inhibitor, single point]",
